Reference: patent publication US20030099984A1 (TEXAS A AND M UNIVERSITY SYSTEM, published 2003)
No constants are given. Whether binding was seen depends on the method and setting. Some results given as binding are weak or reduced against the parent protein; the word gives no strength. Tags and fused reporters may be left off the sequences shown.

Target: T1, His-S tagged RNase H-like protein produced in E. coli, Ni column purified (sugarcane)
T1 sequence: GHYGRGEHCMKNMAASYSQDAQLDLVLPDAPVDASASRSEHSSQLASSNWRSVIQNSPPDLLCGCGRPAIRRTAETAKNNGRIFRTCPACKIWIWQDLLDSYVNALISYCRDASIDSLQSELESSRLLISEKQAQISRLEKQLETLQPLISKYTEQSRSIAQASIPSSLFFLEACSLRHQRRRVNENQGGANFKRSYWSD
Assay: farwestern blot (FIG. 14), labeled RNase H-like protein as probe

B1: 35S labeled RNase H-like protein transcription and translation (TNT) product (other)
chain: T1 sequence
modifications: labeled with 35S Cysteine
notes: Made in rabbit reticulocyte lysate; used as probe in farwestern blots and as the labelled partner in the pull down
binding: binds
